Only a part is listed here, and it is no random draw. The data scatter; read single values as rough.
Each target was assayed with COC(=O)/C=C/c1ccccc1 [methyl cinnamate] (assay: log2 ratio of iodoacetamide-alkyne labeling of the cysteine site, DMSO over compound (competition); higher = stronger covalent engagement of the cysteine by the compound, active = 1 or more). Conditions: 500 µM; treatment time 1 h; system: HEK293T cell lysate.
In short: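 HEK293T lysate (2 mg/mL) was treated with DMSO or electrophile (500 µM, 1 h, ambient temperature), then iodoacetamide alkyne (1 h), clicked to sCIP-TMT reagents, pooled, trypsin-digested overnight at 37 °C, streptavidin-enriched and acid-eluted. Peptides were run on Orbitrap Eclipse LC-MS/MS with FAIMS and quantified in FragPipe. The log2 competition ratio per cysteine is mean control-channel over mean compound-channel reporter intensity. Duplicate channels and three replicates were used, and cysteines quantified in only one replicate were excluded.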

Sequences of proteins named here, by UniProt entry; tags and fusion partners are left off. A change or cut given only in a name is not applied to a line headed by its entry.
UniProt O00471: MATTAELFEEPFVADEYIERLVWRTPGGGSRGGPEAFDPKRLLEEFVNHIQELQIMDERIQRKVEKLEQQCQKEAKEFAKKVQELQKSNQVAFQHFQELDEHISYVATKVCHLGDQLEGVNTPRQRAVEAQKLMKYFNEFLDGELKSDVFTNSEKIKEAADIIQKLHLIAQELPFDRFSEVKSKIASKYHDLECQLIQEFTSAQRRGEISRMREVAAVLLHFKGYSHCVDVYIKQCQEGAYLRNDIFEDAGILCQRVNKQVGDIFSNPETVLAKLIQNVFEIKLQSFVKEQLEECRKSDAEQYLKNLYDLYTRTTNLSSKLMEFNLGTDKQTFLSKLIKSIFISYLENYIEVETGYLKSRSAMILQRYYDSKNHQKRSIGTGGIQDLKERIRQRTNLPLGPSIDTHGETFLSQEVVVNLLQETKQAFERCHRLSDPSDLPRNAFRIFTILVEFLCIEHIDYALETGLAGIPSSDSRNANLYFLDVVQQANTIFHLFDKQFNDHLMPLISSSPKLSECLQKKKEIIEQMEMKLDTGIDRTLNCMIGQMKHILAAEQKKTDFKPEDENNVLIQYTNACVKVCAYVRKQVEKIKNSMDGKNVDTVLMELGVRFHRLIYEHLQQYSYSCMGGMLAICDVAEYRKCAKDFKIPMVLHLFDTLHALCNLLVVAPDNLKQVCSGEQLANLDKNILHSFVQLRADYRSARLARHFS
UniProt O15294: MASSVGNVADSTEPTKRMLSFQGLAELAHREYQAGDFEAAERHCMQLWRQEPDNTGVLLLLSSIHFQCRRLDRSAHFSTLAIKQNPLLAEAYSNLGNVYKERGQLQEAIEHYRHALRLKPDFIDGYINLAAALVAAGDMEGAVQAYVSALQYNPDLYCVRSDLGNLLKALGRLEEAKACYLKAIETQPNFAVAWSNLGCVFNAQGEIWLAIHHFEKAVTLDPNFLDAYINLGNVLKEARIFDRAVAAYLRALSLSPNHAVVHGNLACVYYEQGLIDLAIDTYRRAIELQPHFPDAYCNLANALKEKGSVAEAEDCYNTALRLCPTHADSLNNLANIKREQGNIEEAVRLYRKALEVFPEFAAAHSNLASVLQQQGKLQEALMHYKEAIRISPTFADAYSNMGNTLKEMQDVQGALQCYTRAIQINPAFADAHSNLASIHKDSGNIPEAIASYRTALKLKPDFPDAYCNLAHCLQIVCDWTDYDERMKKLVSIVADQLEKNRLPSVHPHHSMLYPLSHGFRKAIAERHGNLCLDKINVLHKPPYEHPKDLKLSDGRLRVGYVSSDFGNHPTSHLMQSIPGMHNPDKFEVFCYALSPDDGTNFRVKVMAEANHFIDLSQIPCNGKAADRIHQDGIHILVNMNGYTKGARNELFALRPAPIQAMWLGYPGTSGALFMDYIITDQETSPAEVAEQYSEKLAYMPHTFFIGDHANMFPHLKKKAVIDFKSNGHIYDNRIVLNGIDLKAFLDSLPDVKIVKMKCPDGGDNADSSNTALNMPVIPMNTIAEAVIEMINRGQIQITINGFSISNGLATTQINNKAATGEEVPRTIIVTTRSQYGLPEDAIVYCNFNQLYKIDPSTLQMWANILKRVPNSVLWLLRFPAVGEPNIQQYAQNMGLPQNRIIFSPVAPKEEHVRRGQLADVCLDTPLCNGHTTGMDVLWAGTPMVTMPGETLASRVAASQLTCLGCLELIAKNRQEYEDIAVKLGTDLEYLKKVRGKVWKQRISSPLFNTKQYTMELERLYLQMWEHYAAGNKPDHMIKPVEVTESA
UniProt O14980, whole entry, looked up: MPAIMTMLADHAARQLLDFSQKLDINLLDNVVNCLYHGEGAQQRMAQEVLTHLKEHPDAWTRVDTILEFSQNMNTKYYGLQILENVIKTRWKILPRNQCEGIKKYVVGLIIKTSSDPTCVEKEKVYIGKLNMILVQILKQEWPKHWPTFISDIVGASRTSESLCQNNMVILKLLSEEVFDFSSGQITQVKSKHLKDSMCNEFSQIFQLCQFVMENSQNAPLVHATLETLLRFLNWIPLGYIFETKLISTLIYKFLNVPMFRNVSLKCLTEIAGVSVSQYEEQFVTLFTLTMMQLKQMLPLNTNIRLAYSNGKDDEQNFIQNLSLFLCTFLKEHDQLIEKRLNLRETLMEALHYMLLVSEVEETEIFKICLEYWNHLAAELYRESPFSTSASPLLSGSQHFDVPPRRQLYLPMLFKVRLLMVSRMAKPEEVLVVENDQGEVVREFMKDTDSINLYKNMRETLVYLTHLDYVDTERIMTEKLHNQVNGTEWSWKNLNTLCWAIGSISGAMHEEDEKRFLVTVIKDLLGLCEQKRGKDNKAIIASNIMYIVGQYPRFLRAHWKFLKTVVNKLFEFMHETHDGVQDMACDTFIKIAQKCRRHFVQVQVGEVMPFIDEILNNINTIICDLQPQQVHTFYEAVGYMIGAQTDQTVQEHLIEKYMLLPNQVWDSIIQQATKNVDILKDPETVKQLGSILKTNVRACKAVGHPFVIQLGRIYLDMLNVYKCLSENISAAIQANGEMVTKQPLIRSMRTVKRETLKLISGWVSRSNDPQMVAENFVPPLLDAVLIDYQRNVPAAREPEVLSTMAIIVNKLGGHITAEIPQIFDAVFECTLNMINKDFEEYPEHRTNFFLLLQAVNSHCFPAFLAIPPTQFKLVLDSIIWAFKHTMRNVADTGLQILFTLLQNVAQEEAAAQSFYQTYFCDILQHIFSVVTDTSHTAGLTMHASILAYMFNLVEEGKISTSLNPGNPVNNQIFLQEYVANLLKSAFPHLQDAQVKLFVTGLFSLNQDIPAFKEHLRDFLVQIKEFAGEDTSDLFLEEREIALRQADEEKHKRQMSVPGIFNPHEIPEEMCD
UniProt O14654: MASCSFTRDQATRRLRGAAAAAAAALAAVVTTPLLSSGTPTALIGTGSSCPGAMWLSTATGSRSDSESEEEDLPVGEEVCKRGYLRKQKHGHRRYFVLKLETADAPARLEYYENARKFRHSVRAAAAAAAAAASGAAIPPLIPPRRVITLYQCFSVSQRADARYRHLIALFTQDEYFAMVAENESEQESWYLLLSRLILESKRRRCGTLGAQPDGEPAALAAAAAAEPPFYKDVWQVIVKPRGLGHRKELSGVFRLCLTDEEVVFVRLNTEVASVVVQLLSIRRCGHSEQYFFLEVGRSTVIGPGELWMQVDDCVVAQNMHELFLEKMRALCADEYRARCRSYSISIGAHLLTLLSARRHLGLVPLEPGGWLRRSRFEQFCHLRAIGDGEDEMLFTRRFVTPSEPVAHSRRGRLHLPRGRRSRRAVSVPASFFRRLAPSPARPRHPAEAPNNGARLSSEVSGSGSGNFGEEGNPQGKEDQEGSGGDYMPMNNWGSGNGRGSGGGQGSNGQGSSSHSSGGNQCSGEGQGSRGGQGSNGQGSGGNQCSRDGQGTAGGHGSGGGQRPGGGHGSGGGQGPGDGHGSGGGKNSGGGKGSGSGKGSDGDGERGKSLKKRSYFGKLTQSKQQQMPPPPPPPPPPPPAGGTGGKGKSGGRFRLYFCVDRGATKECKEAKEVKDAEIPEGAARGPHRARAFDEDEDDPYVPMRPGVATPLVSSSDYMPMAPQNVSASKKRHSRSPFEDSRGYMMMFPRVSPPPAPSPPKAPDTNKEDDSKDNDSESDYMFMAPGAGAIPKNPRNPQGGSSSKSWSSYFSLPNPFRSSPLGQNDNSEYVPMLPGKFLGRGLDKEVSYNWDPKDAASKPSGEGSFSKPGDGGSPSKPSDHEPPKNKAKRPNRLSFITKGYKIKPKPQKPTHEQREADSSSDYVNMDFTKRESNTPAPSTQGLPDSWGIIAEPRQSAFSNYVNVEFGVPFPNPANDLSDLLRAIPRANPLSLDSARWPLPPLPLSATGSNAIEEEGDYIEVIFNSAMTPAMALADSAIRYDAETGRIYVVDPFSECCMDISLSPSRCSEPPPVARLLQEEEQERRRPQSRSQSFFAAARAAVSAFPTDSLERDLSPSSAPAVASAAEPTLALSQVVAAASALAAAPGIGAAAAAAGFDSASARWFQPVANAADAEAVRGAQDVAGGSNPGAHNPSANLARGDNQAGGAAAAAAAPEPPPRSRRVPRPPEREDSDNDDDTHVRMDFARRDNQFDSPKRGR
UniProt O15085: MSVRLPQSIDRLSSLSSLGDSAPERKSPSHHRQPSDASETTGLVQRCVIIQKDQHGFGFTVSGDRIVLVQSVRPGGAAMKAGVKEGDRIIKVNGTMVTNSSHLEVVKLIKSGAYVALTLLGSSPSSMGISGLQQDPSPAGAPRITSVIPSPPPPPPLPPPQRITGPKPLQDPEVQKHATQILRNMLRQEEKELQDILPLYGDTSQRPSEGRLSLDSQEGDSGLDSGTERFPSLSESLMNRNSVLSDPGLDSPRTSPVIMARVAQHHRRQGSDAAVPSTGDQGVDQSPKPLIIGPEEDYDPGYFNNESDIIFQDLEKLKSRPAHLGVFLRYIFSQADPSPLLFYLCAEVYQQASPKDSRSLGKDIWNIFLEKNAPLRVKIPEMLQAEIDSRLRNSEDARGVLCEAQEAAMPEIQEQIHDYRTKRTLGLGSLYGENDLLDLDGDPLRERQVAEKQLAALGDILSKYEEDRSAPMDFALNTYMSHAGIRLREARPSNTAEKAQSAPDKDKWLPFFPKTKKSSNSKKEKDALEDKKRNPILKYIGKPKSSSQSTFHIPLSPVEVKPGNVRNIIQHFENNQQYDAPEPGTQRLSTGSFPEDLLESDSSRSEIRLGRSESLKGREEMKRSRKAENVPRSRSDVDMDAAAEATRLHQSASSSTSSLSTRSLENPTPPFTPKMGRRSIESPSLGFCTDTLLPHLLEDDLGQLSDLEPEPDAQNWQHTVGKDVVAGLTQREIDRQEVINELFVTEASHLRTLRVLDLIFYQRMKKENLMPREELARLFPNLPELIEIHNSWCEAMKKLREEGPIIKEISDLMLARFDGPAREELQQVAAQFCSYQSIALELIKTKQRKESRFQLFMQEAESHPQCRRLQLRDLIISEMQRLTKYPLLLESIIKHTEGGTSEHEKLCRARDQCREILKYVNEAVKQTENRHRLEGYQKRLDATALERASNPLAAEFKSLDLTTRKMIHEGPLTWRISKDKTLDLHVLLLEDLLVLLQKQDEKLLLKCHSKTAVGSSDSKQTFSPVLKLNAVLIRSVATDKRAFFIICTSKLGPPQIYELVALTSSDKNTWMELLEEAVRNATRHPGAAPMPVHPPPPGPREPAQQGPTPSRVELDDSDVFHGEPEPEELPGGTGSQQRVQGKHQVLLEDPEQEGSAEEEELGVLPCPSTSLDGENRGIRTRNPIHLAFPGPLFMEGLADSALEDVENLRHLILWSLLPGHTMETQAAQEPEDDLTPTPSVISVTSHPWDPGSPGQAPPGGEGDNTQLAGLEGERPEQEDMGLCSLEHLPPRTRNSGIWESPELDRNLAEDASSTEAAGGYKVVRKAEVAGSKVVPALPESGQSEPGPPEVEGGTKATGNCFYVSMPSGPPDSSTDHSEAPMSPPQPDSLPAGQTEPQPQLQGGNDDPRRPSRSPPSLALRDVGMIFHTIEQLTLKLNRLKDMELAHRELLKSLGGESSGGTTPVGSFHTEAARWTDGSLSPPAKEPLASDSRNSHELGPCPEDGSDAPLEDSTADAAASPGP
UniProt O14880: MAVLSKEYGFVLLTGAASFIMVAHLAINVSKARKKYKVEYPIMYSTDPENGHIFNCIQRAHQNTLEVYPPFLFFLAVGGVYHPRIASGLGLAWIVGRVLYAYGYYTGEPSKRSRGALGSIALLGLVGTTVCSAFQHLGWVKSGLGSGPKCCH

log2 ratio of iodoacetamide-alkyne labeling, inactive:
DNM1L C431 (UniProt O00429) 0.33
EXOC5 C194 (UniProt O00471) 0.21
UniProt O14715_C1431 0.0959
OGT C323 (UniProt O15294) -0.159
UniProt O43159_C332 -0.0304
XPO1 C119 (UniProt O14980) 0.373
IRS4 C206 (UniProt O14654) 0.141
INPPL1 C1187 (UniProt O15357) 0.249
ARHGEF11 C1166 (UniProt O15085) 0.189
IRS4 C522 (UniProt O14654) 0.234
PMM2 C103 (UniProt O15305) 0.158
UniProt O15063_C512 0.339
MGST3 C131 (UniProt O14880) -0.168
FAM171A2 C742 (UniProt A8MVW0) 0.0588
PSMD12 C31 (UniProt O00232) -0.219

Retrieved one by one from above:
log2 ratio of iodoacetamide-alkyne labeling, inactive:
IRS4 C206 (UniProt O14654) 0.141
FAM171A2 C742 (UniProt A8MVW0) 0.0588

Reference: the supplement of paper PMC11006884
